Values from PubChem BioAssay AID504793 (Drosophila RNAi Screening Center, 2011).
In all, the deposit lists about 23,000 reagents; shown is an unselected part of those with a known target gene and a result. Of all reagents, 62 (0.27%) are marked active. 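Calls come from follow-up tests whose scores are not deposited, so confirmed genes may have low counts here; counts are not normalised per plate.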 The raw values are shown without normalisation. A number with no mark means an inactive call.

- Assay: 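Genes required for cells to halt at G2/M after double-strand DNA breaks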 (primary screen)
- Cell system: Drosophila S2R+ cells
- Reagent: long dsRNA against Drosophila genes, about 0.25 µg dsRNA per well
- Time to read-out: 4 days of dsRNA, then 4 hours of drug before read-out
- Challenge: doxorubicin 0.5 µM for 4 hours to cause double-strand breaks, in cells also given a low, harmless dose of dsRNA against nbs to sensitise the assay
- Detection: 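Mitotic index as the number of phospho-histone H3-positive cells in each well following doxorubicin, given as raw counts without normalisation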
- Scale: mitotic cells: higher = more cells in mitosis, weaker G2 arrest
- Hit rule: 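Genes are called active only when high mitotic counts were reproduced with independent dsRNAs and mitosis was checked for delay without damage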
- Calls: active = confirmed in follow-up tests; inactive = not confirmed

Against dpr3 (defective proboscis extension response 3) [SID104180187], the entry reads mitotic cells, replicate 1 = 4.
With knock-down of dpr3 (defective proboscis extension response 3) [SID104180188], the record shows mitotic cells, replicate 1 = 11.
Silencing of Dso1 (Daisho1) [SID104201469] came out at: mitotic cells, replicate 1 = 12.
Dso1 (Daisho1) [SID104208315] gave mitotic cells, replicate 1 = 3.
Against CG31787 [SID104181424], the values are mitotic cells, replicate 1 = 7.
Depletion of Cyp4ac1 (Cytochrome P450 4ac1) [SID104183094] resulted in: mitotic cells, replicate 1 = 6.
CG15909 [SID104184769] scored mitotic cells, replicate 1 = 7.
For NimC3 (Nimrod C3) [SID104183348], the values are mitotic cells, replicate 1 = 5.
For NimC3 (Nimrod C3) [SID104201971], the entry reads mitotic cells, replicate 1 = 6.
NimC3 (Nimrod C3) [SID104207126] scored mitotic cells, replicate 1 = 5.
CG14395 [SID104194644] scored mitotic cells, replicate 1 = 5.
Against Lar (Leukocyte-antigen-related-like) [SID104181499] the deposit lists mitotic cells, replicate 1 = 8.
Lar (Leukocyte-antigen-related-like) [SID104183153] showed mitotic cells, replicate 1 = 2.
After knock-down of CIAPIN1 (Cytokine induced apoptosis inhibitor 1) [SID104183351] the results were mitotic cells, replicate 1 = 3.
With knock-down of CIAPIN1 (Cytokine induced apoptosis inhibitor 1) [SID104203005] the results were mitotic cells, replicate 1 = 4.
Depletion of CG15888 [SID104194917] resulted in: mitotic cells, replicate 1 = 3.
After knock-down of CG15888 [SID104205074], the screen gave mitotic cells, replicate 1 = 10.
Silencing of Or22a (Odorant receptor 22a) [SID104180556] gave: mitotic cells, replicate 1 = 22.
After knock-down of Or22a (Odorant receptor 22a) [SID104204553], the screen gave mitotic cells, replicate 1 = 2.
Knock-down of hbn (homeobrain) [SID104184030] came out at: mitotic cells, replicate 1 = 5.
hbn (homeobrain) [SID104184031] showed mitotic cells, replicate 1 = 3.
hbn (homeobrain) [SID104201907] scored mitotic cells, replicate 1 = 12.
Knock-down of CHOp24 [SID104198102] resulted in: mitotic cells, replicate 1 = 3.
Depletion of CG13077 [SID104181973] gave: mitotic cells, replicate 1 = 9.
Fmr1 (Fragile X messenger ribonucleoprotein 1) [SID104196466] scored mitotic cells, replicate 1 = 4.
For Fmr1 (Fragile X messenger ribonucleoprotein 1) [SID104205325], the entry reads mitotic cells, replicate 1 = 6.
After knock-down of CG32407 [SID104189581] the results were mitotic cells, replicate 1 = 2.
Against Dd (Dullard) [SID104200331], the entry reads mitotic cells, replicate 1 = 2.
Shaw (Shaker cognate w) [SID104180225] scored mitotic cells, replicate 1 = 1.
For Shaw (Shaker cognate w) [SID104180580], the entry reads mitotic cells, replicate 1 = 13.
Shaw (Shaker cognate w) [SID104201139] scored mitotic cells, replicate 1 = 13.
CG12105 [SID104188047] scored mitotic cells, replicate 1 = 11.
Silencing of CG12105 [SID104203312] resulted in: mitotic cells, replicate 1 = 7.
After knock-down of Ccp84Ad [SID104192381], the record shows mitotic cells, replicate 1 = 8.
Ccp84Ad [SID104202213] showed mitotic cells, replicate 1 = 10.
